PubChem BioAssay AID1259425 | University of Nebraska Medical Center, 2018
Here is one part, drawn at random, of about 14,000 deposited reagents. Further read-outs or replicates are left out here. Not stated in the record: the time to read-out.

Aim: 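Find knockdowns that reproduce the gene expression pattern seen when KSR1 is lost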 (primary screen)
Cell system: HCT116 human colon cancer cells
Knock-down reagent: siRNA pool against human genes, 50 nM siRNA
Read-out: 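After 50 nM siRNA pool, branched-DNA assay measures six marker transcripts per well, minus blank, normalised to the geometric mean of two housekeeping transcripts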
Direction: BNIP3L mRNA: higher = more BNIP3L transcript after knockdown; NDRG1 mRNA: higher = more NDRG1 transcript after knockdown

| target | BNIP3L mRNA, set 1 | NDRG1 mRNA, set 1 |
| --- | --- | --- |
| VCAN (versican) | 0.136 | 0.105 |
| PDCD1LG2 (programmed cell death 1 ligand 2) | 0.0927 | 0.242 |
| STK11IP (serine/threonine kinase 11 interacting protein) | 0.158 | 0.119 |
| CTRL (chymotrypsin like) | 0.0351 | 0.065 |
| SLC17A6 | 0.053 | 0.119 |
| SLC25A44 | 0.136 | 0.209 |
| OS9 (OS9 endoplasmic reticulum lectin) | 0.103 | 0.0708 |
| ADAM20 (ADAM metallopeptidase domain 20) | 0.0279 | 0.0789 |
| AREL1 (apoptosis resistant E3 ubiquitin protein ligase 1) | 0.0846 | 0.213 |
| PIP (prolactin induced protein) | 0.115 | 0.228 |
| FXYD3 (FXYD domain containing ion transport regulator 3) | 0.14 | 0.146 |
| UBB (ubiquitin B) | 0.263 | 0.413 |
| RCOR1 (REST corepressor 1) | 0.217 | 0.0722 |
| LHX2 (LIM homeobox 2) | 0.0849 | 0.139 |
| MAB21L4 (mab-21 like 4) | 0.119 | 0.363 |
| HOXC9 (homeobox C9) | 0.105 | 0.0972 |
| USP33 (ubiquitin specific peptidase 33) | 0.0542 | 0.129 |
| THNSL2 (threonine synthase like 2) | 0.235 | 0.73 |
| GPN1 (GPN-loop GTPase 1) | 0.123 | 0.59 |
| ADAMTS20 (ADAM metallopeptidase with thrombospondin type 1 motif 20) | 0.0777 | 0.182 |

Only “NDRG1 mRNA, set 1” (2 entries from above):
PIP (prolactin induced protein): 0.228
FXYD3 (FXYD domain containing ion transport regulator 3): 0.146
